Data taken from US20230102973A1, “Medical Use of Anemoside B4 in the Treatment of Oral Ulcers” (priority 2020, published 2023).
At least one compound was matched to its structure with a doubt left.

Assays:
[1] = system: oral ulcer induced by paclitaxel in rats; experiment: Paclitaxel-induced oral ulcer model in rats (food intake, ulcer diameter); format: in vivo, SD rats
Description: Rats were anesthetized by intraperitoneal injection of 10% chloral hydrate solution. After anesthesia, the oral ulcer model induced by chemotherapeutic drugs was established by injecting 50 μl of 6 mg/ml paclitaxel injection into the right buccal mucosa of rats.
All animals with successful modeling were randomly divided into model group, (7 rats), anemoside B4 high dose (about 60 mg/kg*2) group (7 rats), and normal group (6 rats).
24 h after modeling, in anemoside B4 group, rectal administration was performed, 1 suppository/time, twice a day, for 5 successive days; in dexamethasone group, intraperitoneal administration was performed, once a day, for 5 successive days; and in model group, blank suppository was given.
(1) General observation: On the day of modeling, rats were fasted but free access to water for 12 hours, while the diet was given quantitatively on the second day after modeling, and the food intake of rats in each cage was measured daily from the third day after modeling (the second day after administration). (2) Measurement of ulcer surface diameter: from the 2nd day after modeling, the diameter of ulcer surface was measured with a vernier caliper and recorded for 7 successive days.

[2] = system: oral ulcer induced by acetic acid in rats; experiment: Acetic acid-induced oral ulcer model in rats (body weight, food intake, ulcer diameter); format: in vivo, SD rats; details: dexamethasone group
From the text: Rats were anesthetized by intraperitoneal injection of 10% chloral hydrate solution. After anesthesia, 3 mm×3 mm filter paper impregnated with 100% glacial acetic acid was clung to the right buccal mucosa of rats for 45 s. After cauterization for 45 s, a round or oval white lesion of the buccal mucosa in this area was observed, indicating successful modeling.
All animals with successful modeling were randomly divided into six groups according to the ulcer area: (1) model group, 14 rats; (2) Xilei powder (15 mg/kg) group, 12 rats; (3) dexamethasone (0.3 mg/kg) group, 13 rats; (4) anemoside B4 high dose (about 60 mg/kg*3, i.e. 14 mg/suppository, one suppository/time, 3 times/day) group, 14 rats; (5) anemoside B4 medium dose (about 30 mg/kg*3, i.e. 7 mg/suppository, one suppository/time, 3 times/day) group, 14 rats; (6) anemoside B4 low dose (about 15 mg/kg*3, i.e. 3.5 mg/suppository, one suppository/time, 3 times/day) group, 14 rats; and 6 rats were included in the normal group. […]
(1) General observation: daily food intake per cage was measured from the 2nd day after modeling, and animal weight was measured every 2 days. (2) Measurement of ulcer surface diameter: on the 2nd, 4th and 5th day after modeling, the diameter of ulcer surface was measured with a vernier caliper and recorded.

C[C@@H]1C[C@H]2[C@@H]3CCC4=CC(=O)C=C[C@]4(C)[C@@]3(F)[C@@H](O)C[C@]2(C)[C@@]1(O)C(=O)CO [Dexamethasone]
Ulcer diameter compared with model group (in words) ([1]; after administration, from the 3rd day): no significant difference | Food intake compared with model group (in words) ([1]; days 3 to 7 after modeling): no significant improvement in food intake | Body weight after administration (in words) ([2]; after administration): decreased significantly | Food intake compared with model group after the 3rd day (in words) ([2]; after the 3rd day): decreased obviously compared with the model group
